Experimental data: PubChem BioAssay AID1224830 (NIAID, 2016)
The whole screen tested about 18,000 reagents; this is an unselected part. About 2,900 of all reagents (16%) count as active. 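Calls are made per well; low scores hint the gene aids the LPS response, high scores that it dampens it.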 Unmarked entries are inactive. Repeated entries: four replicate wells of each siRNA pool. Reagent sequences are not shown.

Purpose: 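Genes whose knock-down alters the TNF-alpha reporter response to LPS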 (primary screen)
System: human THP-1 monocytic leukaemia cells, TNF dual-luciferase reporter clone, PMA-differentiated to macrophage-like cells
Knock-down reagent: siRNA pool against human genes, 50 nM
Timing: LPS for 4 h, given about 3 days after siRNA transfection
Challenge: bacterial LPS (TLR4 ligand), 10 ng/ml
Detection: 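Ratio of firefly to renilla light, scaled to the plate median and expressed as a robust z-score per replicate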
Direction: TNF reporter robust z-score: higher = stronger TNF reporter response to LPS
Rule for the call: 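a well is active when its z-score exceeds 2.8 or falls below -1.5; control wells carry no call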

With knock-down of KHDC4, the record shows TNF reporter robust z-score 1.26. KHDC4 gave TNF reporter robust z-score 0.95. Against KHDC4 the deposit lists TNF reporter robust z-score 0.12. For KHDC4, the entry reads TNF reporter robust z-score -0.87. With knock-down of CCDC17, the record shows TNF reporter robust z-score 0.8. Depletion of CCDC17 gave: TNF reporter robust z-score 0.74.

With knock-down of CCDC17, the screen gave TNF reporter robust z-score 0.81. Silencing of CCDC17 gave: TNF reporter robust z-score -0.97. Depletion of ADM resulted in: TNF reporter robust z-score 0.11. With knock-down of ADM the results were TNF reporter robust z-score 0.64. Depletion of ADM resulted in: TNF reporter robust z-score 1.1. ADM scored TNF reporter robust z-score 0.99.

Depletion of ARAP1 came out at: TNF reporter robust z-score -0.66. ARAP1 scored TNF reporter robust z-score -0.18. After knock-down of ARAP1 the results were TNF reporter robust z-score -0.53. Against ARAP1, the values are TNF reporter robust z-score -0.62. LRRC23 showed TNF reporter robust z-score 0.04. Silencing of LRRC23 resulted in: TNF reporter robust z-score -0.31.

For LRRC23, the entry reads TNF reporter robust z-score 1.48. Knock-down of LRRC23 gave: TNF reporter robust z-score 0.33. Depletion of WDR90 resulted in: TNF reporter robust z-score -0.27. After knock-down of WDR90, the record shows TNF reporter robust z-score -0.91. Against WDR90 the deposit lists TNF reporter robust z-score -0.71. Against C1QB the deposit lists TNF reporter robust z-score 0.29.

Against C1QB, the values are TNF reporter robust z-score -0.49. With knock-down of C1QB the results were TNF reporter robust z-score -0.24. Depletion of C1QB came out at: TNF reporter robust z-score 0.28. For SLC6A8, the values are TNF reporter robust z-score 1.8. Silencing of SLC6A8 resulted in: TNF reporter robust z-score 1.65. Silencing of SLC6A8 came out at: TNF reporter robust z-score 1.79.

SLC6A8 showed TNF reporter robust z-score -0.16. KIAA0825 scored TNF reporter robust z-score -0.22. Knock-down of KIAA0825 came out at: TNF reporter robust z-score 1.33. Silencing of KIAA0825 resulted in: TNF reporter robust z-score 0.07. Knock-down of KIAA0825 resulted in: TNF reporter robust z-score 0.22. For FOLR2 the deposit lists TNF reporter robust z-score -0.42.

For FOLR2, the values are TNF reporter robust z-score 0.9. FOLR2 scored TNF reporter robust z-score 0.5. Silencing of FOLR2 gave: TNF reporter robust z-score 0.53. With knock-down of DLX3, the screen gave TNF reporter robust z-score 1.33. After knock-down of DLX3, the screen gave TNF reporter robust z-score 1.95. After knock-down of DLX3, the record shows TNF reporter robust z-score 1.93.

Against DLX3, the values are TNF reporter robust z-score 1.49. SMIM19 showed TNF reporter robust z-score -0.52. For SMIM19, the entry reads TNF reporter robust z-score 0.77. SMIM19 scored TNF reporter robust z-score -0.34. SMIM19 gave TNF reporter robust z-score 0.03. TK1 showed TNF reporter robust z-score 0.53.

After knock-down of TK1 the results were TNF reporter robust z-score 0.89. Silencing of TK1 gave: TNF reporter robust z-score 0.79. TK1 gave TNF reporter robust z-score 1.56. For BRI3BP the deposit lists TNF reporter robust z-score 3.86 (active). BRI3BP showed TNF reporter robust z-score 4.83 (active). After knock-down of BRI3BP, the record shows TNF reporter robust z-score 3.76 (active).

Against BRI3BP, the values are TNF reporter robust z-score 3.65 (active). After knock-down of CALHM2, the record shows TNF reporter robust z-score 0.97. Knock-down of CALHM2 gave: TNF reporter robust z-score 0.09. CALHM2 showed TNF reporter robust z-score -0.43. For CALHM2, the entry reads TNF reporter robust z-score -0.4. For SPIRE2, the entry reads TNF reporter robust z-score 0.33.

Knock-down of SPIRE2 came out at: TNF reporter robust z-score 1.35. For SPIRE2, the entry reads TNF reporter robust z-score 0.11. With knock-down of SPIRE2, the screen gave TNF reporter robust z-score -0.35.

Entries above whose gene name starts with W or w (3):
WDR90 → TNF reporter robust z-score = -0.27
WDR90 → TNF reporter robust z-score = -0.91
WDR90 → TNF reporter robust z-score = -0.71
